1 sequence from publication PMC3459988 can be followed below.

Positions count from the first letter of the chain named. Construct, isoform or probe ends are uncertain for at least one entry. At least one result comes from cells or an extract, where the contact may be indirect. For some of these results: The comparison behind a weaker result is the experiment's own reference, which may not be listed here. For some of these results: At least one verdict was read from the data and is not stated in words by the source. For some of these results: Protein sequences can lack the tags named with them.

What is called Kd is the concentration at which binding is half-saturated.

Data set [1] concerns the target T1, TTP-AA S52A,S178A (UniProt P22893).
T1 sequence (looked up, limits assumed): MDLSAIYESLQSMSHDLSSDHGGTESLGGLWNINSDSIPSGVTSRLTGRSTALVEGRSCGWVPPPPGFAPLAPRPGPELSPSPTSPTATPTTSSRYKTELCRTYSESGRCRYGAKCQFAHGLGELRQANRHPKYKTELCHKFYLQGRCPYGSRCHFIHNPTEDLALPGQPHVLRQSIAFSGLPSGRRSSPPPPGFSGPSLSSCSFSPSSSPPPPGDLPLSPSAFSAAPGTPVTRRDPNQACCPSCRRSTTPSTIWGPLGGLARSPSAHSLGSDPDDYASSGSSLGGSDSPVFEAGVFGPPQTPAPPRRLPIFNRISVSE
Briefly: EMSA. Conditions: EMSA: 20 mM HEPES pH 7.6, 3 mM MgCl2, 40 mM KCl, 5% glycerol, 2 mM DTT, 4 ug tRNA, 75 fmol probe in 20 ul (text states 75 fM), 25 min, 4 C, protein in a lysate after overexpression, protein details: His-Strep (pcDNA3), label: 5'-DY-681. (In EMSA bound probe runs differently from free probe, usually more slowly.)

Data set [2] addresses TTP phosphorylated by p38/MK2 (UniProt P22893). Briefly: EMSA. Conditions: 4e-6 M TTP, p38/MK2-phosphorylated versus dephosphorylated; EMSA: 20 mM HEPES pH 7.6, 3 mM MgCl2, 40 mM KCl, 5% glycerol, 2 mM DTT, 4 ug tRNA, 75 fmol probe in 20 ul (text states 75 fM), 25 min, 4 C; protein in a lysate after overexpression; protein details: His-Strep (pcDNA3); label: 5'-DY-681.
The target in data set [3] is T2, TTP, CIP-dephosphorylated or as purified (UniProt P22893).
T2 sequence (looked up, limits assumed): T1 sequence (looked up, limits assumed) with A52S, A178S
The data set is described as follows: EMSA and UV cross-linking titration. Conditions: CIP-dephosphorylated; EMSA: 20 mM HEPES pH 7.6, 3 mM MgCl2, 40 mM KCl, 5% glycerol, 2 mM DTT, 4 ug tRNA, 75 fmol probe in 20 ul (text states 75 fM), 25 min, 4 C; protein in a lysate after overexpression; protein details: His-Strep (pcDNA3); label: 5'-DY-681.

The target in data set [4] is TTP phosphorylated by p38/MK2 (UniProt P22893). Briefly: EMSA and UV cross-linking titration. Conditions: p38/MK2-phosphorylated; EMSA: 20 mM HEPES pH 7.6, 3 mM MgCl2, 40 mM KCl, 5% glycerol, 2 mM DTT, 4 ug tRNA, 75 fmol probe in 20 ul (text states 75 fM), 25 min, 4 C; protein in a lysate after overexpression; protein details: His-Strep (pcDNA3); label: 5'-DY-681.
Data set [5] concerns HuR incubated with p38/MK2. The data set is described as follows: EMSA and UV cross-linking titration. Conditions: active p38/MK2, no significant change; EMSA: 20 mM HEPES pH 7.6, 3 mM MgCl2, 40 mM KCl, 5% glycerol, 2 mM DTT, 4 ug tRNA, 75 fmol probe in 20 ul (text states 75 fM), 25 min, 4 C; protein in a lysate after overexpression; protein details: Strep (pEXPR-IBA105); label: 5'-DY-681.

Data set [6] relates to HuR (His/Strep-purified strep-HuR). Briefly: EMSA and UV cross-linking titration. Conditions: CIP-dephosphorylated; EMSA: 20 mM HEPES pH 7.6, 3 mM MgCl2, 40 mM KCl, 5% glycerol, 2 mM DTT, 4 ug tRNA, 75 fmol probe in 20 ul (text states 75 fM), 25 min, 4 C; protein in a lysate after overexpression; protein details: Strep (pEXPR-IBA105); label: 5'-DY-681.
Data set [7] addresses T2, TTP, CIP-dephosphorylated or as purified. Briefly: competition, UV cross-linking. Conditions: HuR competitor, no active MK2, displacement at about threefold molar excess of the other protein; EMSA: 20 mM HEPES pH 7.6, 3 mM MgCl2, 40 mM KCl, 5% glycerol, 2 mM DTT, 4 ug tRNA, 75 fmol probe in 20 ul (text states 75 fM), 25 min, 4 C; protein in a lysate after overexpression; protein details: His-Strep (pcDNA3); label: 5'-DY-681.

The target in data set [8] is T1, TTP-AA S52A,S178A. The data set is described as follows: competition, UV cross-linking. Conditions: 100 ng with 25 or 50 ng HuR, equilibrium unchanged by p38/MK2; EMSA: 20 mM HEPES pH 7.6, 3 mM MgCl2, 40 mM KCl, 5% glycerol, 2 mM DTT, 4 ug tRNA, 75 fmol probe in 20 ul (text states 75 fM), 25 min, 4 C; protein in a lysate after overexpression; protein details: His-Strep (pcDNA3); label: 5'-DY-681.

For data set [9], the target named is TTP phosphorylated by p38/MK2 (UniProt P22893). Briefly: competition, UV cross-linking. Conditions: 100 ng TTP with 25 ng HuR, active p38/MK2, displaced by HuR; EMSA: 20 mM HEPES pH 7.6, 3 mM MgCl2, 40 mM KCl, 5% glycerol, 2 mM DTT, 4 ug tRNA, 75 fmol probe in 20 ul (text states 75 fM), 25 min, 4 C; protein in a lysate after overexpression; protein details: His-Strep (pcDNA3); label: 5'-DY-681.

In data set [10] the test system is HuR incubated with p38/MK2. The data set is described as follows: competition, UV cross-linking. Conditions: 25 ng HuR with 100 ng TTP, active p38/MK2, almost exclusive HuR binding; EMSA: 20 mM HEPES pH 7.6, 3 mM MgCl2, 40 mM KCl, 5% glycerol, 2 mM DTT, 4 ug tRNA, 75 fmol probe in 20 ul (text states 75 fM), 25 min, 4 C; protein in a lysate after overexpression; protein details: Strep (pEXPR-IBA105); label: 5'-DY-681.

Data set [11] concerns the target T3, TTP-S178A (UniProt P22893).
T3 sequence (looked up, limits assumed): T1 sequence (looked up, limits assumed) with A52S
Briefly: competition, UV cross-linking. Conditions: 100 ng with 25 or 50 ng HuR, equilibrium unchanged by p38/MK2; EMSA: 20 mM HEPES pH 7.6, 3 mM MgCl2, 40 mM KCl, 5% glycerol, 2 mM DTT, 4 ug tRNA, 75 fmol probe in 20 ul (text states 75 fM), 25 min, 4 C; protein in a lysate after overexpression; protein details: His-Strep (pcDNA3); label: 5'-DY-681.

For data set [12], the system named is HuR (His/Strep-purified strep-HuR). The data set is described as follows: competition, UV cross-linking. Conditions: TTP competitor, no active MK2, displacement at about threefold molar excess of the other protein; EMSA: 20 mM HEPES pH 7.6, 3 mM MgCl2, 40 mM KCl, 5% glycerol, 2 mM DTT, 4 ug tRNA, 75 fmol probe in 20 ul (text states 75 fM), 25 min, 4 C; protein in a lysate after overexpression; protein details: Strep (pEXPR-IBA105); label: 5'-DY-681.

Data set [13] has as its target T4, TTP-S52A (UniProt P22893).
T4 sequence (looked up, limits assumed): T1 sequence (looked up, limits assumed) with A178S
Briefly: competition, UV cross-linking. Conditions: 100 ng with 25 or 50 ng HuR, equilibrium unchanged by p38/MK2; EMSA: 20 mM HEPES pH 7.6, 3 mM MgCl2, 40 mM KCl, 5% glycerol, 2 mM DTT, 4 ug tRNA, 75 fmol probe in 20 ul (text states 75 fM), 25 min, 4 C; protein in a lysate after overexpression; protein details: His-Strep (pcDNA3); label: 5'-DY-681.

Data set [14] deals with T2, TTP, CIP-dephosphorylated or as purified. The data set is described as follows: EMSA supershift. Conditions: one band, anti-TTP supershift, EMSA: 20 mM HEPES pH 7.6, 3 mM MgCl2, 40 mM KCl, 5% glycerol, 2 mM DTT, 4 ug tRNA, 75 fmol probe in 20 ul (text states 75 fM), 25 min, 4 C, protein in a lysate after overexpression, protein details: His-Strep (pcDNA3), label: 5'-DY-681.

The test system of data set [15] is HuR (His/Strep-purified strep-HuR). Briefly: EMSA supershift. Conditions: as purified, two-band pattern, anti-HuR supershift; EMSA: 20 mM HEPES pH 7.6, 3 mM MgCl2, 40 mM KCl, 5% glycerol, 2 mM DTT, 4 ug tRNA, 75 fmol probe in 20 ul (text states 75 fM), 25 min, 4 C; protein in a lysate after overexpression; protein details: Strep (pEXPR-IBA105); label: 5'-DY-681.

“AUUUAUUUAUUUAUUUAUUUAUUUA [TNF ARE RNA probe]”: the binding result in data set [1] (active p38/MK2, affinity not altered) is “binds”; in data set [1] (data not shown), “binds”; in data set [2], “binds more weakly”; in data set [4], “binds more weakly”; in [5], “binds”; in data set [6] it was “binds”. The binding result in data set [7] is “binds”; in data set [8], “binds”; in data set [9], “binds more weakly”; in [10], “binds”; in data set [11] it was “binds”; in data set [12] it was “binds”. Moreover, the binding result in [13], in [14] and in data set [15] was “binds” throughout. Also, the Kd in data set [3] is 5 1e-7 M.
